In ChEMBL document CHEMBL4316593 (Eur J Med Chem, 2019):
This continues a long series; more values of the same kind are listed elsewhere.

Assays:
Format in all cases: cell-based
Settings in all cases: U-87MG ATCC
[1] = Inhibition of RTK/PI3K/AKT/mTOR signaling in human U87 cells assessed as down regulation of ZNF596 gene expression at cytotoxic IC50 measured after 48 hrs relative to control
[2] = Inhibition of RTK/PI3K/AKT/mTOR signaling in human U87 cells assessed as up regulation of Kruppel like factor 9 gene expression at cytotoxic IC50 measured after 48 hrs relative to control
[3] = Inhibition of RTK/PI3K/AKT/mTOR signaling in human U87 cells assessed as up regulation of MTND2 gene expression at cytotoxic IC50 measured after 48 hrs relative to control
[4] = Inhibition of RTK/PI3K/AKT/mTOR signaling in human U87 cells assessed as down regulation of ZNF708 gene expression at cytotoxic IC50 measured after 48 hrs relative to control
[5] = Inhibition of RTK/PI3K/AKT/mTOR signaling in human U87 cells assessed as down regulation of SRSF7 gene expression at cytotoxic IC50 measured after 48 hrs relative to control
[6] = Inhibition of RTK/PI3K/AKT/mTOR signaling in human U87 cells assessed as up regulation of serine hydroxymethyltransferase 2 gene expression at cytotoxic IC50 measured after 48 hrs relative to control
[7] = Inhibition of RTK/PI3K/AKT/mTOR signaling in human U87 cells assessed as up regulation of adenine phosphoribosyltransferase gene expression at cytotoxic IC50 measured after 48 hrs relative to control
[8] = Inhibition of RTK/PI3K/AKT/mTOR signaling in human U87 cells assessed as down regulation of AUNIP gene expression at cytotoxic IC50 measured after 48 hrs relative to control
[9] = Inhibition of RTK/PI3K/AKT/mTOR signaling in human U87 cells assessed as up regulation of ras-related C3 botulinum toxin substrate 3 (rho family, small GTP binding protein Rac3) gene expression at cytotoxic IC50 measured after 48 hrs relative to control
[10] = Inhibition of RTK/PI3K/AKT/mTOR signaling in human U87 cells assessed as down regulation of BTBD10 gene expression at cytotoxic IC50 measured after 48 hrs relative to control
[11] = Inhibition of RTK/PI3K/AKT/mTOR signaling in human U87 cells assessed as down regulation of UGT8 gene expression at cytotoxic IC50 measured after 48 hrs relative to control
[12] = Inhibition of RTK/PI3K/AKT/mTOR signaling in human U87 cells assessed as up regulation of PGM1 gene expression at cytotoxic IC50 measured after 48 hrs relative to control
[13] = Inhibition of RTK/PI3K/AKT/mTOR signaling in human U87 cells assessed as up regulation of NOTCH3 gene expression at cytotoxic IC50 measured after 48 hrs relative to control
[14] = Inhibition of RTK/PI3K/AKT/mTOR signaling in human U87 cells assessed as down regulation of HSPA1A gene expression at cytotoxic IC50 measured after 48 hrs relative to control
[15] = Inhibition of RTK/PI3K/AKT/mTOR signaling in human U87 cells assessed as down regulation of TAOK3 gene expression at cytotoxic IC50 measured after 48 hrs relative to control
[16] = Inhibition of RTK/PI3K/AKT/mTOR signaling in human U87 cells assessed as up regulation of zinc and ring finger 1 gene expression at cytotoxic IC50 measured after 48 hrs relative to control
[17] = Inhibition of RTK/PI3K/AKT/mTOR signaling in human U87 cells assessed as up regulation of ER degradation enhancing alpha-mannosidase like protein 1 gene expression at cytotoxic IC50 measured after 48 hrs relative to control
[18] = Inhibition of RTK/PI3K/AKT/mTOR signaling in human U87 cells assessed as down regulation of S100A10 gene expression at cytotoxic IC50 measured after 48 hrs relative to control
[19] = Inhibition of RTK/PI3K/AKT/mTOR signaling in human U87 cells assessed as down regulation of TP53I13 gene expression at cytotoxic IC50 measured after 48 hrs relative to control
[20] = Inhibition of RTK/PI3K/AKT/mTOR signaling in human U87 cells assessed as down regulation of ANKFN1 gene expression at cytotoxic IC50 measured after 48 hrs relative to control
[21] = Inhibition of RTK/PI3K/AKT/mTOR signaling in human U87 cells assessed as up regulation of GLI1 gene expression at cytotoxic IC50 measured after 48 hrs relative to control
[22] = Inhibition of RTK/PI3K/AKT/mTOR signaling in human U87 cells assessed as down regulation of LRRC58 gene expression at cytotoxic IC50 measured after 48 hrs relative to control
[23] = Inhibition of RTK/PI3K/AKT/mTOR signaling in human U87 cells assessed as down regulation of ARRDC4 gene expression at cytotoxic IC50 measured after 48 hrs relative to control
[24] = Inhibition of RTK/PI3K/AKT/mTOR signaling in human U87 cells assessed as down regulation of TUBA1C gene expression at cytotoxic IC50 measured after 48 hrs relative to control
[25] = Inhibition of RTK/PI3K/AKT/mTOR signaling in human U87 cells assessed as up regulation of heat shock transcription factor 4 gene expression at cytotoxic IC50 measured after 48 hrs relative to control
[26] = Inhibition of RTK/PI3K/AKT/mTOR signaling in human U87 cells assessed as up regulation of tRNA phosphotransferase 1 gene expression at cytotoxic IC50 measured after 48 hrs relative to control
[27] = Inhibition of RTK/PI3K/AKT/mTOR signaling in human U87 cells assessed as down regulation of PKMYT1 gene expression at cytotoxic IC50 measured after 48 hrs relative to control
[28] = Inhibition of RTK/PI3K/AKT/mTOR signaling in human U87 cells assessed as up regulation of ribonuclease/angiogenin inhibitor 1 gene expression at cytotoxic IC50 measured after 48 hrs relative to control
[29] = Inhibition of RTK/PI3K/AKT/mTOR signaling in human U87 cells assessed as up regulation of CD55 gene expression at cytotoxic IC50 measured after 48 hrs relative to control
[30] = Inhibition of RTK/PI3K/AKT/mTOR signaling in human U87 cells assessed as down regulation of PAPD5 gene expression at cytotoxic IC50 measured after 48 hrs relative to control
[31] = Inhibition of RTK/PI3K/AKT/mTOR signaling in human U87 cells assessed as down regulation of CD274 gene expression at cytotoxic IC50 measured after 48 hrs relative to control
[32] = Inhibition of RTK/PI3K/AKT/mTOR signaling in human U87 cells assessed as down regulation of HIST1H1C gene expression at cytotoxic IC50 measured after 48 hrs relative to control

SMILES: CC(=O)C(=NNc1ccccc1C#N)C(C)=O
- log2FC [1]: -2.18
- log2FC [2]: 0.892
- log2FC [3]: 1.24
- log2FC [4]: -2.13
- log2FC [5]: -0.975
- log2FC [6]: 0.929
- log2FC [7]: 0.674
- log2FC [8]: -1.3
- log2FC [9]: 0.765
- log2FC [10]: -0.983
- log2FC [11]: -0.897
- log2FC [12]: 0.542
- log2FC [13]: 2.42
- log2FC [14]: -4.49
- log2FC [15]: -0.924
- log2FC [16]: 0.857
- log2FC [17]: 0.779
- log2FC [18]: -0.47
- log2FC [19]: -0.709
- log2FC [20]: -1.45
- log2FC [21]: 2.92
- log2FC [22]: -0.968
- log2FC [23]: -2.67
- log2FC [24]: -0.879
- log2FC [25]: 1.17
- log2FC [26]: 0.833
- log2FC [27]: -1.09
- log2FC [28]: 0.734
- log2FC [29]: 0.57
- log2FC [30]: -0.82
- log2FC [31]: -1.7
- log2FC [32]: -2.17
